PubChem BioAssay AID686937 – Drosophila RNAi Screening Center, 2013

Aim: 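Knock-downs that reduce output of a secreted reporter enzyme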 (primary screen)
System: Drosophila S2 cells expressing secreted horseradish peroxidase
Reagents: long dsRNA against Drosophila genes
Timing: about 5.5 days (5 days dsRNA, then 12 h reporter induction)
Challenge: reporter expression induced after 5 days of dsRNA, read 12 h later; inducer not stated
Read-out: 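After 5 days of dsRNA and 12 h of reporter induction, medium peroxidase read by chemiluminescence and scored as per-plate z-score; higher values mean more reporter released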
Scale: z-score: higher = more reporter secreted into medium
The deposit covers about 23,000 reagents; this is a random part of those that have a named target and a result. 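Reduced-secretion tags in replicate 1 do not always agree with the z-scores; no criterion for assigning the tags was given.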 Names joined by + are all predicted targets of the reagent. Not all columns of the deposit are shown. The record does not give: the amount of reagent.

Knock-down of CG5001 [DRSC00673] gave: z-score, replicate 1 = 0.03. CG13970 [DRSC02311] showed z-score, replicate 1 = -0.09. Against CG6357 [DRSC06979], the entry reads z-score, replicate 1 = 0.27. CG33639 [DRSC19966] showed z-score, replicate 1 = 0.33. CG33639 [DRSC22820] gave z-score, replicate 1 = 4.05. CG18563 [DRSC02676] scored z-score, replicate 1 = 0.6.

thoc7 [DRSC08512] showed z-score, replicate 1 = 0.06. For Jhe [DRSC07174], the values are z-score, replicate 1 = 0.3. For CG4577 [DRSC00658], the entry reads z-score, replicate 1 = 0.24. Against pip [DRSC11382], the values are z-score, replicate 1 = 0.3. Depletion of Pcmt [DRSC12363] gave: z-score, replicate 1 = 0.25. With knock-down of Obp19b [DRSC20536], the screen gave z-score, replicate 1 = -0.35.

Silencing of Akt [DRSC14108] resulted in: z-score, replicate 1 = 0.19. Silencing of QC [DRSC09736] gave: z-score, replicate 1 = 0.22. Against CG12128 + CG1407 [DRSC06446] the deposit lists z-score, replicate 1 = 0.52. Silencing of CG17660 [DRSC00513] resulted in: z-score, replicate 1 = 0.36. CR43142 [DRSC00962] showed z-score, replicate 1 = 0.36. Against CG14635 [DRSC17945], the values are z-score, replicate 1 = 0.45.

Silencing of CG13216 [DRSC06338] came out at: z-score, replicate 1 = 0.27. Depletion of CG13699 [DRSC10048] came out at: z-score, replicate 1 = -0.11. After knock-down of Chchd2 [DRSC19931], the record shows z-score, replicate 1 = -0.13. After knock-down of Lcp65Af [DRSC11213], the record shows z-score, replicate 1 = 0.32. After knock-down of Lsp2 [DRSC09841], the screen gave z-score, replicate 1 = -0.01. Lsp2 [DRSC11216] showed z-score, replicate 1 = 0.04.

robl62A [DRSC08153] gave z-score, replicate 1 = -0.25. Depletion of CG14191 [DRSC19546] gave: z-score, replicate 1 = 0.33. Against Fpps [DRSC07429], the entry reads z-score, replicate 1 = 0.41. With knock-down of Dlip2 [DRSC12346], the screen gave z-score, replicate 1 = 0.36. Against Ipp [DRSC16718], the entry reads z-score, replicate 1 = 0.56. Depletion of slp2 [DRSC00836] came out at: z-score, replicate 1 = 0.35.

Records above whose gene name begins with L or l:
Lcp65Af [DRSC11213]: z-score, replicate 1 = 0.32
Lsp2 [DRSC09841]: z-score, replicate 1 = -0.01
Lsp2 [DRSC11216]: z-score, replicate 1 = 0.04

Next entries:
Against smal [DRSC02318], the values are z-score, replicate 1 = 0.46. For smal [DRSC02319], the values are z-score, replicate 1 = -0.13. smal [DRSC02320] showed z-score, replicate 1 = 0.03. Against smal [DRSC02504] the deposit lists z-score, replicate 1 = 0.13. Silencing of smal [DRSC22866] gave: z-score, replicate 1 = 3.05. Against DCTN1-p150 [DRSC11175], the entry reads z-score, replicate 1 = 0.26.

CG10183 [DRSC14203] gave z-score, replicate 1 = 0.43. For CG15719 [DRSC19685] the deposit lists z-score, replicate 1 = 0.2. Against yellow-e2 [DRSC15169], the entry reads z-score, replicate 1 = 0.5. After knock-down of Tm2 [DRSC16887], the screen gave z-score, replicate 1 = 0.3. After knock-down of Tsp5D [DRSC18380], the screen gave z-score, replicate 1 = 0.27. After knock-down of CG5418 [DRSC02857], the screen gave z-score, replicate 1 = 0.76.

With knock-down of CG33296 [DRSC00998], the screen gave z-score, replicate 1 = -0.16. Silencing of Cap-H2 [DRSC14908] came out at: z-score, replicate 1 = 0.37. CG44014 + CG44013 [DRSC14995] gave z-score, replicate 1 = -0.01. After knock-down of CG17129 [DRSC08508], the screen gave z-score, replicate 1 = 0.15. oys [DRSC05203] gave z-score, replicate 1 = -2.31. oys [DRSC06751] showed z-score, replicate 1 = 0.3.

Depletion of dcma [DRSC00246] resulted in: z-score, replicate 1 = 0.28. After knock-down of dcma [DRSC00338], the screen gave z-score, replicate 1 = 0.39. Knock-down of Rab6 [DRSC03404] resulted in: z-score, replicate 1 = -0.15.
